# Measured values published in the supplement of paper PMC11438910.
# The list shows a part of the results. Only a few entries rise above the background.
# What was measured:
# Test in all cases: fluorescence intensity of antibody binding to polysaccharide-coupled beads; higher = stronger binding
# [1] = target: pneumococcal polysaccharide Pn11F
# [2] = target: pneumococcal polysaccharide Pn12A
# [3] = target: pneumococcal polysaccharide Pn12B
# [4] = target: pneumococcal polysaccharide Pn12F
# [5] = target: pneumococcal polysaccharide Pn13
# [6] = target: pneumococcal polysaccharide Pn14
# [7] = target: pneumococcal polysaccharide Pn15A
# [8] = target: pneumococcal polysaccharide Pn15B
# [9] = target: pneumococcal polysaccharide Pn15C
# [10] = target: pneumococcal polysaccharide Pn15F
# [11] = target: pneumococcal polysaccharide Pn16A
# [12] = target: pneumococcal polysaccharide Pn16F
# [13] = antibody concentration 2.8593 ng/mL
# [14] = antibody concentration 15.2894 ng/mL
# [15] = antibody concentration 81.7561 ng/mL
# [16] = antibody concentration 437.17 ng/mL
# [17] = antibody concentration 2337.65 ng/mL
# [18] = antibody concentration 12500 ng/mL
# [19] = antibody concentration 0.1 ng/mL
# [20] = antibody concentration 0.534724 ng/mL
binder,measurement,setting,value
4-127.5 (protein) chain 1: QVQLQESGPGLVKPSETLSLTCAVSGYSISSGYGWSWIRQPPGKGLEWIGYIGGSDSSTNYNPSLKSRVTISKDTSKNQLSLKLRSVTAADTAVYYCGSRGAVAGLGGLDSWGQGLLVTVSS chain 2: QSVLTQPPSVSGAPGQRVTISCTGSSSNIGAGYGVQWYQQLPGTAPKLLIYENNKRPSGVFDRFSGSQSGTSGSLTITGLQSEDEADYYCQSYDSSLKAVLFGGGTRLTVL,fluorescence intensity,[1]; [13],15 MFI
same,fluorescence intensity,[1]; [14],13.5 MFI
same,fluorescence intensity,[1]; [15],16.5 MFI
same,fluorescence intensity,[1]; [16],15 MFI
same,fluorescence intensity,[1]; [17],17.5 MFI
same,fluorescence intensity,[1]; [18],29 MFI
same,fluorescence intensity,[2]; [19],16 MFI
same,fluorescence intensity,[2]; [20],16.5 MFI
same,fluorescence intensity,[2]; [13],15.5 MFI
same,fluorescence intensity,[2]; [14],15 MFI
same,fluorescence intensity,[2]; [15],15 MFI
same,fluorescence intensity,[2]; [16],17.8 MFI
same,fluorescence intensity,[2]; [17],21.5 MFI
same,fluorescence intensity,[2]; [18],45.5 MFI
same,fluorescence intensity,[3]; [19],16.8 MFI
same,fluorescence intensity,[3]; [20],16.5 MFI
same,fluorescence intensity,[3]; [13],16 MFI
same,fluorescence intensity,[3]; [14],16.5 MFI
same,fluorescence intensity,[3]; [15],15.5 MFI
same,fluorescence intensity,[3]; [16],17.5 MFI
same,fluorescence intensity,[3]; [17],21 MFI
same,fluorescence intensity,[3]; [18],50.5 MFI
same,fluorescence intensity,[4]; [19],17.5 MFI
same,fluorescence intensity,[4]; [20],18.8 MFI
same,fluorescence intensity,[4]; [13],19.5 MFI
same,fluorescence intensity,[4]; [14],19.5 MFI
same,fluorescence intensity,[4]; [15],18.5 MFI
same,fluorescence intensity,[4]; [16],19.5 MFI
same,fluorescence intensity,[4]; [17],23.5 MFI
same,fluorescence intensity,[4]; [18],41.2 MFI
same,fluorescence intensity,[5]; [19],19.5 MFI
same,fluorescence intensity,[5]; [20],19.8 MFI
same,fluorescence intensity,[5]; [13],19.5 MFI
same,fluorescence intensity,[5]; [14],18.5 MFI
same,fluorescence intensity,[5]; [15],19.5 MFI
same,fluorescence intensity,[5]; [16],21 MFI
same,fluorescence intensity,[5]; [17],23 MFI
same,fluorescence intensity,[5]; [18],45 MFI
same,fluorescence intensity,[6]; [19],17 MFI
same,fluorescence intensity,[6]; [20],15.5 MFI
same,fluorescence intensity,[6]; [13],15.5 MFI
same,fluorescence intensity,[6]; [14],16 MFI
same,fluorescence intensity,[6]; [15],16.2 MFI
same,fluorescence intensity,[6]; [16],16 MFI
same,fluorescence intensity,[6]; [17],24 MFI
same,fluorescence intensity,[6]; [18],182 MFI
same,fluorescence intensity,[7]; [19],13 MFI
same,fluorescence intensity,[7]; [20],13.5 MFI
same,fluorescence intensity,[7]; [13],14.5 MFI
same,fluorescence intensity,[7]; [14],13.5 MFI
same,fluorescence intensity,[7]; [15],13.5 MFI
same,fluorescence intensity,[7]; [16],15 MFI
same,fluorescence intensity,[7]; [17],14.8 MFI
same,fluorescence intensity,[7]; [18],20.8 MFI
same,fluorescence intensity,[8]; [19],19.5 MFI
same,fluorescence intensity,[8]; [20],18 MFI
same,fluorescence intensity,[8]; [13],18 MFI
same,fluorescence intensity,[8]; [14],19.8 MFI
same,fluorescence intensity,[8]; [15],20.5 MFI
same,fluorescence intensity,[8]; [16],20.5 MFI
same,fluorescence intensity,[8]; [17],22.5 MFI
same,fluorescence intensity,[8]; [18],26.5 MFI
same,fluorescence intensity,[9]; [19],17.5 MFI
same,fluorescence intensity,[9]; [20],18 MFI
same,fluorescence intensity,[9]; [13],19 MFI
same,fluorescence intensity,[9]; [14],17.5 MFI
same,fluorescence intensity,[9]; [15],20 MFI
same,fluorescence intensity,[9]; [16],16.2 MFI
same,fluorescence intensity,[9]; [17],25 MFI
same,fluorescence intensity,[9]; [18],32.5 MFI
same,fluorescence intensity,[10]; [19],18.5 MFI
same,fluorescence intensity,[10]; [20],17.5 MFI
same,fluorescence intensity,[10]; [13],17.5 MFI
same,fluorescence intensity,[10]; [14],17.5 MFI
same,fluorescence intensity,[10]; [15],19 MFI
same,fluorescence intensity,[10]; [16],18 MFI
same,fluorescence intensity,[10]; [17],21 MFI
same,fluorescence intensity,[10]; [18],37.5 MFI
same,fluorescence intensity,[11]; [19],16 MFI
same,fluorescence intensity,[11]; [20],15.8 MFI
same,fluorescence intensity,[11]; [13],15 MFI
same,fluorescence intensity,[11]; [14],14.2 MFI
same,fluorescence intensity,[11]; [15],14 MFI
same,fluorescence intensity,[11]; [16],15.8 MFI
same,fluorescence intensity,[11]; [17],18 MFI
same,fluorescence intensity,[11]; [18],31.5 MFI
same,fluorescence intensity,[12]; [19],25 MFI
same,fluorescence intensity,[12]; [20],24.5 MFI
same,fluorescence intensity,[12]; [13],24 MFI
same,fluorescence intensity,[12]; [14],24.2 MFI

# 7 records picked at random from those above:
binder,measurement,setting,value
4-127.5 (protein) chain 1: QVQLQESGPGLVKPSETLSLTCAVSGYSISSGYGWSWIRQPPGKGLEWIGYIGGSDSSTNYNPSLKSRVTISKDTSKNQLSLKLRSVTAADTAVYYCGSRGAVAGLGGLDSWGQGLLVTVSS chain 2: QSVLTQPPSVSGAPGQRVTISCTGSSSNIGAGYGVQWYQQLPGTAPKLLIYENNKRPSGVFDRFSGSQSGTSGSLTITGLQSEDEADYYCQSYDSSLKAVLFGGGTRLTVL,fluorescence intensity,[11]; [17],18 MFI
same,fluorescence intensity,[2]; [18],45.5 MFI
same,fluorescence intensity,[11]; [15],14 MFI
same,fluorescence intensity,[5]; [13],19.5 MFI
same,fluorescence intensity,[9]; [16],16.2 MFI
same,fluorescence intensity,[5]; [14],18.5 MFI
same,fluorescence intensity,[1]; [14],13.5 MFI
